Test results: patent US12181409B2, “Cell imaging composition and cellular material imaging method using same” (EWHA UNIVERSITY-INDUSTRY COLLABORATION FOUNDATION, priority 2019, dated 2024)

Test: Reactivity with aminoalcohol, CD and fluorescence measurement
Details: for change in CD and fluorescence: mixture with aminopropanol; for reaction with aminopropanol: up to 10 eq of aminopropanol
Method: After Compound 1 (30 mg) was dissolved in 1 mL of CDCl3, 0.5 eq, 1 eq, 2 eq, 5 eq and 10 eq of aminoalcohol were sequentially added and stirred for 30 minutes each time. As a result, ^1H NMR spectra were obtained (FIG. 2A). The aminoalcohol used in the experiment is as follows: […]

SMILES | change in CD and fluorescence | reaction with aminopropanol
O=C(c1ccccc1)c1ccccc1NCc1ccccc1 [Comparative Compound 1] | no change occurred | No reaction occurred
O=C(Nc1ccccc1)Nc1ccccc1CNc1ccccc1C(=O)c1ccccc1 [Comparative Compound 2] | no change occurred | No reaction occurred
OB(O)c1ccccc1CNc1cccc2ccccc12 [Comparative Compound 3] | no change occurred | No reaction occurred
